The target in this test is hypoxia-inducible factor-1α (human (endogenous in U251-MG)) (UniProt Q16665). Briefly: co-IP; lysates of high-density cultured U251-MG cells (1% NP-40, 20 mM Tris-HCl pH 7.5, 137 mM NaCl, 2 mM EDTA) precipitated with anti-HIF-1α or normal IgG and protein G agarose, then immunoblot; Fig. 5B untreated cells, Fig. 5D siControl 48 h and MG132 2 h.

By UniProt entry, the sequences of proteins in these tests, tags left out. Residues count along the entry.
UniProt Q16665: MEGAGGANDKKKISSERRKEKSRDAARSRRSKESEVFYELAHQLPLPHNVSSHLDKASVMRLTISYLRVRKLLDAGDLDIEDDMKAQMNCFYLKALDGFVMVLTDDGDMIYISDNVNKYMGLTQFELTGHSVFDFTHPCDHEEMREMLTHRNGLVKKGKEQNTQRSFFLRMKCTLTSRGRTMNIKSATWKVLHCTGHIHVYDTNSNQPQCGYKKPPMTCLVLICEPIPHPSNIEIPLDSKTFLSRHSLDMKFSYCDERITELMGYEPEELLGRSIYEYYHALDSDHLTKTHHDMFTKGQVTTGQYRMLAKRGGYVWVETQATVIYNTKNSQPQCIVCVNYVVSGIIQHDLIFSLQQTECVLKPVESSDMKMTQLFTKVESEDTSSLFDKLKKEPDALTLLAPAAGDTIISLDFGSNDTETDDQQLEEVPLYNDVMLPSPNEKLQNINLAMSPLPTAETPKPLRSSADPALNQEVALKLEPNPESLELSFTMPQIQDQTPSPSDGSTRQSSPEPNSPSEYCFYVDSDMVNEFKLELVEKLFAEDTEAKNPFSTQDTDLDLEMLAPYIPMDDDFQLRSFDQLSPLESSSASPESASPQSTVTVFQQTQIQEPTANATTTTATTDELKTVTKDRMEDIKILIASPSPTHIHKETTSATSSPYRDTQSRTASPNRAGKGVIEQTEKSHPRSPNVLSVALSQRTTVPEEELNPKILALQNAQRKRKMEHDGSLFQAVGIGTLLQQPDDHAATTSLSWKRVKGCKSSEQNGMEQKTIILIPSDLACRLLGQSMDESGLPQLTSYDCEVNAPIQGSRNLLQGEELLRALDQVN
UniProt P46531, residues 1754-2555: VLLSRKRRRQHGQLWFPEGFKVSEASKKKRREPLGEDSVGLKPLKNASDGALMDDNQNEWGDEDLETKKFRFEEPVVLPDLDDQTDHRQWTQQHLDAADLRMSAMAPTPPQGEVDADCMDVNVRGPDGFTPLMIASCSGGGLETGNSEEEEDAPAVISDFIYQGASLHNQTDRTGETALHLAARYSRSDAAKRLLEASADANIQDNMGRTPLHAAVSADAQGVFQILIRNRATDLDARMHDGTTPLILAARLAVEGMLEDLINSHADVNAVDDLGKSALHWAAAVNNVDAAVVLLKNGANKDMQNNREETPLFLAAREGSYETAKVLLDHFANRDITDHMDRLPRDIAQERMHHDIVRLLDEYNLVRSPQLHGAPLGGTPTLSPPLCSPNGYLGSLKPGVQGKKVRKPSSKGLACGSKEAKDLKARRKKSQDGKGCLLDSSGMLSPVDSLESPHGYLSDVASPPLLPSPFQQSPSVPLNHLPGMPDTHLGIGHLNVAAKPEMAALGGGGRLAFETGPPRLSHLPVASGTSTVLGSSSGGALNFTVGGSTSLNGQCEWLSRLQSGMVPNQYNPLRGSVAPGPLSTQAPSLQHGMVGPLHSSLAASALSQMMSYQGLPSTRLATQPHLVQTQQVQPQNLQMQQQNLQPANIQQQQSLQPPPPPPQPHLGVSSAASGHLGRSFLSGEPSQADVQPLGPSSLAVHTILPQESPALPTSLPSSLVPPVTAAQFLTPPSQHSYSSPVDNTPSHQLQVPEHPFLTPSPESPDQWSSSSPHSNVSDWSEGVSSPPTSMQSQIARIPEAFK

These are yes or no findings as the source states them, for the method shown. Binding seen in cells or lysates may run through a third protein. Some entries that bind do so weakly or less than the wild type.

As to “Notch1 intracellular domain (from UniProt P46531 1754-2555) (domain or fragment)”, the binding result was “binds”.
